Test results taken from US20200247897A1, “THERAPEUTIC ANTIBODIES BASED ON MUTATED IGG HEXAMERS” (GENMAB B.V., priority 2017, published 2020).
Further values from the same series stand in other lists.

Test system: panel of 235 cell lines representing 14 tumor lineages
Assay: ATPlite growth inhibition screening of a human cancer cell line panel (Horizon Discovery)
Format: cell-based
Procedure: A 72 hour ATPlite assay (except for DLD-1 and HCT116 cell lines, for which a 120 hour assay was performed) with growth inhibition analysis was performed in two parts at Horizon Discovery Ltd, UK. Samples were tested as four replicates in 384-well assay plates. Serial dilution series of antibody, starting from 0.072 μM final concentration was used for all tested cell lines. For TRAIL (Invitrogen; Cat # PHC1634) serial dilution series starting from 0.01 μM final concentration for the cell lines tested in the first part and 0.17 μM final concentration for the cell lines tested in the second part of the screening was used.

## TRAIL: natural DR5 ligand, recombinant human TRAIL/APO-2L
KYSE-270, head and neck cancer, screening #1
  Max Inhibition: 5.4%
KYSE-410, head and neck cancer, screening #1
  Max Inhibition: 10.6%
LMSU, gastric cancer, screening #1
  Max Inhibition: 9.0%
LOVO, colorectal cancer, screening #1
  Max Inhibition: 44.5%
LS-411N, colorectal cancer, screening #1
  Max Inhibition: 26.9%
LU-134-A, SCLC, screening #1
  Max Inhibition: 28.0%
LU-135, SCLC, screening #1
  Max Inhibition: 9.7%
LU-139, SCLC, screening #1
  Max Inhibition: 10.0%
Li-7, liver cancer, screening #1
  Max Inhibition: 20.4%
MDA-MB-231, breast cancer (TNBC), screening #1
  Max Inhibition: 53.3%
MDA-MB-436, breast cancer (TNBC), screening #2
  Max Inhibition: 76.3%
MDST8, colorectal cancer, screening #1
  Max Inhibition: 58.3%
MES-SA, endometrial cancer, screening #1
  Max Inhibition: 92.6%
MFE-280, endometrial cancer, screening #1
  Max Inhibition: 11.0%
MFE-296, endometrial cancer, screening #1
  Max Inhibition: 8.7%
MKN1, gastric cancer, screening #1
  Max Inhibition: 10.5%
NCC-StC-K140, gastric cancer, screening #1
  Max Inhibition: 9.8%
NCI-H69, SCLC, screening #1
  Max Inhibition: 14.5%
NCI-H345, SCLC, screening #1
  Max Inhibition: 16.4%
NCI-H446, SCLC, screening #1
  Max Inhibition: 11.7%
NMC-G1, neural tissue cancer, screening #2
  Max Inhibition: 15.2%
NUGC-3, gastric cancer, screening #1
  Max Inhibition: 38.7%
PE-CA-PJ34-cl C12, head and neck cancer, screening #1
  Max Inhibition: 4.7%
RERF-GC-1B, gastric cancer, screening #1
  Max Inhibition: 14.0%
RH-41, liver cancer, screening #1
  Max Inhibition: 3.0%
RKO, colorectal cancer, screening #1
  Max Inhibition: 10.5%
RL95-2, endometrial cancer, screening #1
  Max Inhibition: 97.7%
SCC-15, head and neck cancer, screening #1
  Max Inhibition: 19.4%
SF126, neural tissue cancer, screening #2
  Max Inhibition: 85.6%
SH-10-TC, gastric cancer, screening #1
  Max Inhibition: 34.9%
SHP-77, SCLC, screening #1
  Max Inhibition: 9.1%
SK-UT-1, endometrial cancer, screening #1
  Max Inhibition: 10.9%
SNB-75, neural tissue cancer, screening #2
  Max Inhibition: 9.6%
SNG-II, endometrial cancer, screening #1
  Max Inhibition: 77.2%
SNU5, gastric cancer, screening #1
  Max Inhibition: 91.2%
SNU283, colorectal cancer, screening #1
  Max Inhibition: 40.3%
SNU1033, colorectal cancer, screening #1
  Max Inhibition: 51.7%
SNU-175, colorectal cancer, screening #1
  Max Inhibition: 96.2%
SNU-216, gastric cancer, screening #1
  Max Inhibition: 49.6%
SNU-407, colorectal cancer, screening #1
  Max Inhibition: 96.1%
SNU-478, liver cancer, screening #1
  Max Inhibition: 83.3%
SNU-601, gastric cancer, screening #1
  Max Inhibition: 85.2%
SNU-620, gastric cancer, screening #1
  Max Inhibition: 99.9%
SNU-668, gastric cancer, screening #1
  Max Inhibition: 99.6%
SNU-719, gastric cancer, screening #1
  Max Inhibition: 85.4%
SNU-761, liver cancer, screening #1
  Max Inhibition: 7.1%
SNU-869, liver cancer, screening #1
  Max Inhibition: 58.6%
SNU-1079, liver cancer, screening #1
  Max Inhibition: 24.9%
SNU-1196, liver cancer, screening #1
  Max Inhibition: 44.3%
SNU-1197, colorectal cancer, screening #1
  Max Inhibition: 100.0%
SNU-C2B, colorectal cancer, screening #1
  Max Inhibition: 71.3%
SUM159PT, breast cancer (TNBC), screening #2
  Max Inhibition: 98.6%
SW480, colorectal cancer, screening #1
  Max Inhibition: 55.2%
SW837, colorectal cancer, screening #1
  Max Inhibition: 83.8%
SW1116, colorectal cancer, screening #1
  Max Inhibition: 23.1%
SW1417, colorectal cancer, screening #1
  Max Inhibition: 12.2%
TE-1, head and neck cancer, screening #1
  Max Inhibition: 23.0%
TE-4, head and neck cancer, screening #1
  Max Inhibition: 81.0%
TE-5, head and neck cancer, screening #1
  Max Inhibition: 11.6%
TE-6, head and neck cancer, screening #1
  Max Inhibition: 55.3%
TE-8, head and neck cancer, screening #1
  Max Inhibition: 39.6%
TE-9, head and neck cancer, screening #1
  Max Inhibition: 73.6%
TE-10, head and neck cancer, screening #1
  Max Inhibition: 24.4%
TEN, endometrial cancer, screening #1
  Max Inhibition: 70.0%
U-87 MG, neural tissue cancer, screening #2
  Max Inhibition: 8.0%
YD-8, head and neck cancer, screening #1
  Max Inhibition: 3.4%
YD-15, head and neck cancer, screening #1
  Max Inhibition: 100.0%
YH-13, neural tissue cancer, screening #2
  Max Inhibition: 39.5%
